The record followed here is PMC7187271.

Results are given in words; binding and its absence hold for the method and conditions named. In cells and extracts the contact can be indirect. Some binding calls cover weakened binding; strength is not graded here.

What all share (assay): pull-down; 5 μg biotin-labeled peptide with 50 μg lysate of VEGF-treated/untreated Sca1+-VPCs at 37°C for 1 hour, streptavidin-agarose beads, washed six times with lysis buffer containing 0.5% Triton X-100, eluate analysed by Western blot; only the target purified
(In western blotting, separated proteins are transferred to a membrane and probed.)

Assay [1] deals with T1, biotin-labeled 7Aa peptide (7-aa peptide with a serine substituted with an alanine, MHAPGAD) (mouse).
T1 sequence (peptide, biotin on the N-terminus): MHAPGAD

Assay [2] addresses T2, biotin-labeled scrabbled 7-aa peptide 7S (MPHASGD).
T2 sequence (peptide, biotin on the N-terminus): MPHASGD

For assay [3], the target named is T3, biotin-labeled 7Ap peptide (MH[pSer]PGAD, synthetically phosphorylated serine residue) (mouse).
T3 sequence (peptide, phosphoserine (MH[pSer]PGAD); biotin on the N-terminus): MHSPGAD

In assay [4] the target is T4, biotin-labeled 7-aa peptide 7A (MHSPGAD) (mouse).
T4 sequence (peptide, biotin on the N-terminus): MHSPGAD

B1: phosphorylated MEKK1 (phospho-MEKK1 Ser393) (enzyme, UniProt P53349 1-1493)
chain: MAAAAGDRASSSGFPGAAAASPEAGGGGGGGGALQGSGAPAAGAAGLLREPGSAGRERADWRRRQLRKVRSVELDQLPEQPLFLAAASPPCPSTSPSPEPADAAAGASRFQPAAGPPPPGAASRCGSHSAELAAARDSGARSPAGAEPPSAAAPSGREMENKETLKGLHKMEDRPEERMIREKLKATCMPAWKHEWLERRNRRGPVVVKPIPIKGDGSEVNNLAAEPQGEGQAGSAAPAPKGRRSPSPGSSPSGRSVKPESPGVRRKRVSPVPFQSGRITPPRRAPSPDGFSPYSPEETSRRVNKVMRARLYLLQQIGPNSFLIGGDSPDNKYRVFIGPQNCSCGRGAFCIHLLFVMLRVFQLEPSDPMLWRKTLKNFEVESLFQKYHSRRSSRIKAPSRNTIQKFVSRMSNSHTLSSSSTSTSSSENSIKDEEEQMCPICLLGMLDEESLTVCEDGCRNKLHHHCMSIWAEECRRNREPLICPLCRSKWRSHDFYSHELSSPVESPASLRAVQQPSSPQQPVAGSQRRNQESSFNLTHFGTQQIPSAYKDLAEPWIQVFGMELVGCLFSRNWNVREMALRRLSHDVSGALLLANGESTGNSGGGSGGSLSAGAASGSSQPSISGDVVEACCSVLSIVCADPVYKVYVAALKTLRAMLVYTPCHSLAERIKLQRLLRPVVDTILVKCADANSRTSQLSISTVLELCKGQAGELAVGREILKAGSIGVGGVDYVLSCILGNQAESNNWQELLGRLCLIDRLLLEFPAEFYPHIVSTDVSQAEPVEIRYKKLLSLLTFALQSIDNSHSMVGKLSRRIYLSSARMVTAVPAVFSKLVTMLNASGSTHFTRMRRRLMAIADEVEIAEVIQLGVEDTVDGHQDSLQAVAPTSCLENSSLEHTVHREKTGKGLSATRLSASSEDISDRLAGVSVGLPSSTTTEQPKPAVQTKGRPHSQCLNSSPLSHAQLMFPAPSAPCSSAPSVPDISKHRPQAFVPCKIPSASPQTQRKFSLQFQRNCSEHRDSDQLSPVFTQSRPPPSSNIHRPKPSRPVPGSTSKLGDATKSSMTLDLGSASRCDDSFGGGGNSGNAVIPSDETVFTPVEDKCRLDVNTELNSSIEDLLEASMPSSDTTVTFKSEVAVLSPEKAENDDTYKDDVNHNQKCKEKMEAEEEEALAIAMAMSASQDALPIVPQLQVENGEDIIIIQQDTPETLPGHTKAKQPYREDAEWLKGQQIGLGAFSSCYQAQDVGTGTLMAVKQVTYVRNTSSEQEEVVEALREEIRMMGHLNHPNIIRMLGATCEKSNYNLFIEWMAGGSVAHLLSKYGAFKESVVINYTEQLLRGLSYLHENQIIHRDVKGANLLIDSTGQRLRIADFGAAARLASKGTGAGEFQGQLLGTIAFMAPEVLRGQQYGRSCDVWSVGCAIIEMACAKPPWNAEKHSNHLALIFKIASATTAPSIPSHLSPGLRDVAVRCLELQPQDRPPSRELLKHPVFRTTW
modifications: phosphoserine at 393
In the case of B1, the binding entry in assay [1] was “binds”.

B2: MEKK1 (mitogen-activated protein kinase MEKK1) (enzyme, UniProt P53349 1-1493)
chain: B1 chain
With B2, the binding entry in assay [2] and in assay [1] was “binds” each time.

B3: 14-3-3 gamma protein (protein, UniProt P61982 1-247)
chain: MVDREQLVQKARLAEQAERYDDMAAAMKNVTELNEPLSNEERNLLSVAYKNVVGARRSSWRVISSIEQKTSADGNEKKIEMVRAYREKIEKELEAVCQDVLSLLDNYLIKNCSETQYESKVFYLKMKGDYYRYLAEVATGEKRATVVESSEKAYSEAHEISKEHMQPTHPIRLGLALNYSVFYYEIQNAPEQACHLAKTAFDDAIAELDTLNEDSYKDSTLIMQLLRDNLTLWTSDQQDDDGGEGNN
As to B3, the binding entry in assay [3] and in assay [4] was “binds” each time.
